The text below walks through data of PubChem BioAssay AID1347423 (Functional Genomics Laboratory (NCATS/FGL), 2020).

The whole screen tested about 52,000 sequences, of which about 210 (0.4%) were called active.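 How the source made its calls: active means gene whose silencing raises cell survival under the drug, median off-target-corrected z-score across its silencing RNAs 2 or more; inactive means the rest.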 The list shows a part of the results.

The nature of this test: Resistance to Poly (ADP-Ribose) Polymerase inhibitor: Gene Identification via Genome-wide siRNA Screen. The settings on record: mouse BRCA2 R2336H ES cells, olaparib, CellTiter-Glo viability; hits give high values. The method, boiled down:
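Mouse BRCA2 R2336H ES cells were reverse-transfected with siRNA (20 nM final), treated at 48 h with 500 nM olaparib, and read by CellTiter-Glo after 72 h. Scores: MAD-based z per siRNA, median per gene, seed off-target correction.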
In the case of GCUUCGAGUUACAAUGUCATT against LOC382105, the z-score is inactive: 0.489.
To GCCUUUGCUGUUAUACAAUTT against Wdr19 belongs inactive: -0.0749; to GGCUUAUUAGACGGAUGAATT against Rpl7, inactive: -3.41.
GCCAGCUACCGAGUCUAUUTT against Tkt: the z-score was inactive: -0.959.
To GCUCUACAAGAAUGCUCGGTT against Vps28 belongs inactive: 0.105; to GAAAUGGGCAGAGAGAUCGTT against Speer3, inactive: 0.25.
To GGCUCGUCUCAUGUUUUGGTT against Arfrp1 belongs inactive: 1.1.
Take GGAAGAAGGAAGGUUCAGATT against Strm: the z-score is inactive: 0.773.
For GCUACAUGGAUUGGAUUAATT against C1rl, the z-score was inactive: 0.594.
The same measure for GGGUGGAGACCAAACAAUATT against Npy1r: inactive: 0.422; for GGAAGGAACCGUUCUAUAATT against Serpinc1: inactive: 0.92; for “GGAUACAUCUGAUUUAAUGTT against 4921521J11Rik”: inactive: 0.571.
To GGCCCAUCCCACAAUGAUATT against Gm574 belongs inactive: 0.242; to “GGAAAUGUUCUUCAUGUCATT against 1110038F14Rik”, inactive: -0.409; to GGUUAUUAAAGCCUAUGGCTT against Grcc10, inactive: 0.347.
To GCUAUCGAAGGAAUAAUACTT against Zfp364 belongs inactive: -1.27; to GGGAGUUAAGAGCAUUCUCTT against Prlpm, inactive: -0.509.
For the sequence GGAUUUCCUCAUGUGAUCUTT against Smad4, the z-score was inactive: -0.125.
The same measure for GGAAGUUUGUAGAGUAUGUTT against Xylt1: inactive: -1.06.
To GGUAGGAAUUUGGAAAACUTT against H2-T24 belongs inactive: 0.915; to GCAGAUUUUCUCCUGCAAGTT against Insm2, inactive: -1.38; to GGAAGACAUAAAGCUCUGUTT against Olfr1242, inactive: 0.25.
To “GGUUGCUGUUUAGUUUUCATT against 1810030O07Rik” belongs inactive: 0.00878; to “CGGAGUUGAAGUUCAUUUATT against 2700097O09Rik”, inactive: 0.293; to GCAAGAAUGCAAUUUCUUATT against Olfr904, inactive: 0.266.
Regarding GGAAUAUGGACCAAGAGAGTT against Plcb2, the z-score was inactive: 0.145.
To GUCUUUAGAGUCAUCCUCUTT against Olfr493 belongs inactive: 0.962.
On to GGCAGAACGAACAGAGUUUTT against Nipsnap3a, for which the z-score is inactive: 1.56.
To “GGCAACUUAAGUUUUACAGTT against 9030409E16Rik” belongs inactive: 0.113.
With “CCGAAAUUCUGACUGAGAATT against 2410018G23Rik”, the z-score is inactive: -1.28.
The same measure for GGCUUGAGGCCUAUUUCAGTT against Sod3: inactive: -2.13; for GGUGAAUACUUCAGAUACATT against Sult2b1: inactive: -0.037; for UGUACUGAUACAUACUUCCTT against Olfr1249: inactive: 0.47.
To CCACUCCCAUAAGGGCUAUTT against Smo belongs inactive: -0.035; to GCCGUCAUCAUGGAAGGUUTT against Bace1, inactive: -0.557; to “CGUGGAUAGGUUUUUGUGGTT against 2510009E07Rik”, inactive: 1.23.
The same measure for “GCAAUACUCUGGUACUAGATT against 4932415D10Rik”: inactive: -0.352; for GGAUGAGCUGAAUUUCCUATT against Ocil: inactive: -0.662; for “GGCAGUAGCCAGAAGGCAUTT against 0610009J22Rik”: inactive: -0.25.
Regarding CCAUAUGAUAUAGCAUGAGTT against Agtr2, the z-score is inactive: 1.2.
The same measure for GGGAAACAUCUUCCUAUCCTT against Serpina12: inactive: 1.16; for GCUGCUAAGUCGCACAUCUTT against Ppfibp2: inactive: -0.516.
To CCGUGGGACCAGAGUUAAATT against Gm253 belongs inactive: 1.99; to GGCACCUGGAUUUUCUAUGTT against Crygs, inactive: 1.79; to GGAAGAAGAUGACAAUGAATT against Pak3, inactive: -0.137.
The same measure for CCAGAAGUCUCAAAUUCUGTT against Ccl8: inactive: -0.588.
Consider GGAUGUGCAUAGUUUAAAATT against Apg12l, for which the z-score is inactive: 0.749.
On to GGUGAUAGAAGUUUACAUGTT against Tnfsf4, for which the z-score is inactive: 1.07.
To GCCAUCGAGUGUGACGAGATT against Nagpa belongs inactive: 0.148.
Take “GGUCAAAGCCUUUCAUUAUTT against 6330406L22Rik”: the z-score was inactive: 1.47.
To “GGGCAAUAAUGCAAAGUAUTT against 4921522P10Rik” belongs inactive: -2.23.
To “GGUCAUUUCACUAGUUUUCTT against 9930014A18Rik” belongs inactive: 1.26; to “CCUGUUGAGUAAGCAACAATT against 4932416K20Rik”, inactive: -0.323.
To “GGCUUCUGUUUUUAUUUGUTT against B230208J24Rik” belongs inactive: 0.992; to CGAUGAUCCUUAAAGGAUUTT against Hes5, inactive: 0.245.
Take UACAUUACUUCAACUGGAATT against Gm1961: the z-score is inactive: -0.634.
The same measure for “CGAUGGUGUUUUUUGGCUATT against 9430071P14Rik”: inactive: 0.223; for CCCAUGACUAUCCAAACAATT against Kcnmb2: inactive: 0.375.
To GGAUUAUGCAAGUUACAUUTT against Nsf belongs inactive: -0.0349; to GGAGUCACUCUGCUCUUUUTT against Kcnn1, inactive: 2.52; to GGCCUCGAACAGUUUAUUATT against Snx12, inactive: -0.582.
To GGAGGCAGACUUCAGGGAUTT against Lepre1 belongs inactive: 0.175; to “GGGACUUAAGUGAAGUUCATT against 5730405M13Rik”, inactive: -1.22; to “CCCUACGUGAGACAUUUGATT against 4930564N15Rik”, inactive: -0.215.
With “GCGCAUUAGGAUAUAGACATT against 9530085L02Rik”, the z-score is inactive: 0.0519.
The same measure for GGAUGAUUUAUGGUUCUUGTT against V1rg4: inactive: 1.54.
The same measure for GGUAGAGACCGCAUAGAAATT against Aqp8: inactive: 0.697.
To UACGCUAAGGAAUAAGGACTT against Olfr110 belongs inactive: -0.0124.
In the case of CGCUUACAUGAACUUCAUATT against Trar3, the z-score was inactive: -0.163.
To UUCCCACUCUGACUAUUUUTT against Olfr970 belongs inactive: -1.14; to “GGUAAGGUUACAGCACUGATT against 2510006C20Rik”, inactive: 0.942.
To GCGGAACUUUCAUUGCUGGTT against Rabggta belongs inactive: -0.0607; to “GGUUUAACUAGAAUUUGGUTT against F730023N20”, inactive: 0.724; to CCAGACCUGUUGUAAAGACTT against Grn, inactive: -8.1e-05.
To GGAGAGUGAUAUCAAGCCUTT against Lbr belongs inactive: 0.834; to GGCCAAGAAACAUGCCCUATT against Pbx2, inactive: -0.613.
For the sequence GGACUUUACAAUAAAACAGTT against Dkk4, the z-score was inactive: 0.906.
The same measure for CCAUCAUCCCUAGAUACCCTT against Muc20: inactive: -1.59; for GGAACAGAACCACUACCUGTT against Slc39a5: inactive: -0.596; for CCCUGAUUCAUACGACUGATT against Ctdp1: inactive: 0.27.
The same measure for “GGAGGUACCAGCAGAAAGUTT against 1110001C20Rik”: inactive: -0.668.
To GCAACUUUAUAGCAGAAUCTT against Apbb3 belongs inactive: -0.686; to GGCAUUUCGUGGAUCACCGTT against Gtpbp5, inactive: -0.584.
As for GGAGACACUCGUCCUUUAUTT against Cyp20a1, the z-score is inactive: -0.0559.
With GGACAAGUUUCAGUGACCCTT against Zdhhc9, the z-score was inactive: -0.268.
To GGAACAGGCCACCAUUGAATT against Mrps7 belongs inactive: -2.17.
Consider GGAAGUGGACAUCACCAUGTT against Sh3bgrl2, for which the z-score is inactive: -0.564.
With GCUCUCUCUCAUUGAUCUCTT against Olfr697, the z-score was inactive: 0.475.
To GCAGUCUUUUGGAUAGGUUTT against Ccni belongs inactive: 0.638; to CGCGAGAAGACGAAUUCUCTT against Pknox1, inactive: 0.136.
Consider CCAGGAUCCUUCUAAGUGCTT against Tes, for which the z-score was inactive: -0.659.
To GGAAGGUCUGCUAUAAGUATT against Ifi30 belongs inactive: -0.176.
The same measure for GGGCCAAAGGAAACAGCACTT against Slc24a5: inactive: 1.83.
Regarding GCUUCGAUCGCUGGAAUGUTT against Dctn4, the z-score was inactive: -1.09.
To GCCGUCUUUACAUUCCUGATT against Olfr605 belongs inactive: 1.12.
As to “GGACAUUUCAAAAGAAAGGTT against 6330406I15Rik”, the z-score is inactive: 0.0653.
The same measure for GGUCAAGCCAGUGGGCUAATT against Gtrgeo22: inactive: -0.66.
To CCAUUUAUCCUCUUUUCCGTT against Plekhb1 belongs inactive: 0.929.
GCCGAGGACCACAUUAAAGTT against Crtap: the z-score is inactive: 0.743.
In the case of GCCGUGAUCGACUUGAAUATT against U2af1, the z-score was inactive: -2.97.
To CCCAGUGGUUUUAAAGCAUTT against Commd3 belongs inactive: 0.547; to CCCAUUAUGGAGCUAGAAATT against Arid4b, inactive: -2.21.
To GGAACAUGUCGUAAAUAAGTT against Trim7 belongs inactive: 0.753.
To GCUCAUGUGACUAUUGUUATT against Olfr1512 belongs inactive: -0.34.
